{"source": "patent US20200340060A1", "about": "“COMPOSITIONS AND METHODS FOR IDENTIFYING AND TREATING LIVER DISEASES AND MONITORING TREATMENT OUTCOMES” (Gilead Sciences, Inc., priority 2017, published 2020)", "experiment": "SOMAscan serum proteomics in NASH subjects treated with selonsertib/simtuzumab, baseline and week 24", "parameters": "species or system human", "details": "serum protein marker level, week 24 vs baseline; for Median percent CHG at W24 in improver: hepatic ballooning improvers; for Median percent CHG at W24 in Non-improver: hepatic ballooning non-improvers"}
{"molecule": "HINT1 (protein, UniProt P49773 2-126, looked up) Adenosine …: ADEIAKAQVARPGGDTIFGKIIRKEIPAKIIFEDDRCLAFHDISPQAPTHFLVIPKKHISQISVAEDDDESLLGHLMIVGKKCAADLGLNKGYRMVVNEGSDGGQSVYHVHLHVLGGRQMHWPPG", "values": [{"measurement": "Median percent CHG at W24 in improver", "value": "−30.56", "unit": "%"}, {"measurement": "Median percent CHG at W24 in Non-improver", "value": "−10.655", "unit": "%"}]}
{"molecule": "Thyroxine-Binding Globulin (protein, UniProt P05543 21-415, looked up) Thyroxine-binding globulin: ASPEGKVTACHSSQPNATLYKMSSINADFAFNLYRRFTVETPDKNIFFSPVSISAALVMLSFGACCSTQTEIVETLGFNLTDTPMVEIQHGFQHLICSLNFPKKELELQIGNALFIGKHLKPLAKFLNDVKTLYETEVFSTDFSNISAAKQEINSHVEMQTKGKVVGLIQDLKPNTIMVLVNYIHFKAQWANPFDPSKTEDSSSFLIDKTTTVQVPMMHQMEQYYHLVDMELNCTVLQMDYSKNALALFVLPKEGQMESVEAAMSSKTLKKWNRLLQKGWVDLFVPKFSISATYDLGATLLKMGIQHAYSENADFSGLTEDNGLKLSNAAHKAVLHIGEKGTEAAAVPEVELSDQPENTFLHPIIQIDRSFMLLILERSTRSILFLGKVVNPTEA", "values": [{"measurement": "Median percent CHG at W24 in improver", "value": "−7.58", "unit": "%"}, {"measurement": "Median percent CHG at W24 in Non-improver", "value": "−1.5", "unit": "%"}]}
{"molecule": "IL-13 Ra1 (protein, UniProt P78552 22-427, looked up) Interleukin-13 receptor …: GGGGAAPTETQPPVTNLSVSVENLCTVIWTWNPPEGASSNCSLWYFSHFGDKQDKKIAPETRRSIEVPLNERICLQVGSQCSTNESEKPSILVEKCISPPEGDPESAVTELQCIWHNLSYMKCSWLPGRNTSPDTNYTLYYWHRSLEKIHQCENIFREGQYFGCSFDLTKVKDSSFEQHSVQIMVKDNAGKIKPSFNIVPLTSRVKPDPPHIKNLSFHNDDLYVQWENPQNFISRCLFYEVEVNNSQTETHNVFYVQEAKCENPEFERNVENTSCFMVPGVLPDTLNTVRIRVKTNKLCYEDDKLWSNWSQEMSIGKKRNSTLYITMLLIVPVIVAGAIIVLLLYLKRLKIIIFPPIPDPGKIFKEMFGDQNDDTLHWKKYDIYEKQTKEETDSVVLIENLKKASQ", "values": [{"measurement": "Median percent CHG at W24 in improver", "value": 5.91, "unit": "%"}, {"measurement": "Median percent CHG at W24 in Non-improver", "value": "−0.565", "unit": "%"}]}
{"molecule": "kallikrein 12 (protein, UniProt Q9UKR0 18-248, looked up) Kallikrein-12: ATPKIFNGTECGRNSQPWQVGLFEGTSLRCGGVLIDHRWVLTAAHCSGSRYWVRLGEHSLSQLDWTEQIRHSGFSVTHPGYLGASTSHEHDLRLLRLRLPVRVTSSVQPLPLPNDCATAGTECHVSGWGITNHPRNPFPDLLQCLNLSIVSHATCHGVYPGRITSNMVCAGGVPGQDACQGDSGGPLVCGGVLQGLVSWGSVGPCGQDGIPGVYTYICKYVDWIRMIMRNN", "values": [{"measurement": "Median percent CHG at W24 in improver", "value": 3.44, "unit": "%"}, {"measurement": "Median percent CHG at W24 in Non-improver", "value": "−1.51", "unit": "%"}]}
{"molecule": "EphA1 (protein, UniProt P21709 26-976, looked up) Ephrin type-A receptor 1: KEVTLMDTSKAQGELGWLLDPPKDGWSEQQQILNGTPLYMYQDCPMQGRRDTDHWLRSNWIYRGEEASRVHVELQFTVRDCKSFPGGAGPLGCKETFNLLYMESDQDVGIQLRRPLFQKVTTVAADQSFTIRDLVSGSVKLNVERCSLGRLTRRGLYLAFHNPGACVALVSVRVFYQRCPETLNGLAQFPDTLPGPAGLVEVAGTCLPHARASPRPSGAPRMHCSPDGEWLVPVGRCHCEPGYEEGGSGEACVACPSGSYRMDMDTPHCLTCPQQSTAESEGATICTCESGHYRAPGEGPQVACTGPPSAPRNLSFSASGTQLSLRWEPPADTGGRQDVRYSVRCSQCQGTAQDGGPCQPCGVGVHFSPGARGLTTPAVHVNGLEPYANYTFNVEAQNGVSGLGSSGHASTSVSISMGHAESLSGLSLRLVKKEPRQLELTWAGSRPRSPGANLTYELHVLNQDEERYQMVLEPRVLLTELQPDTTYIVRVRMLTPLGPGPFSPDHEFRTSPPVSRGLTGGEIVAVIFGLLLGAALLLGILVFRSRRAQRQRQQRQRDRATDVDREDKLWLKPYVDLQAYEDPAQGALDFTRELDPAWLMVDTVIGEGEFGEVYRGTLRLPSQDCKTVAIKTLKDTSPGGQWWNFLREATIMGQFSHPHILHLEGVVTKRKPIMIITEFMENGALDAFLREREDQLVPGQLVAMLQGIASGMNYLSNHNYVHRDLAARNILVNQNLCCKVSDFGLTRLLDDFDGTYETQGGKIPIRWTAPEAIAHRIFTTASDVWSFGIVMWEVLSFGDKPYGEMSNQEVMKSIEDGYRLPPPVDCPAPLYELMKNCWAYDRARRPHFQKLQAHLEQLLANPHSLRTIANFDPRMTLRLPSLSGSDGIPYRTVSEWLESIRMKRYILHFHSAGLDTMECVLELTAEDLTQMGITLPGHQKRILCSIQGFKD", "values": [{"measurement": "Median percent CHG at W24 in improver", "value": 8.65, "unit": "%"}, {"measurement": "Median percent CHG at W24 in Non-improver", "value": 1.83, "unit": "%"}]}
{"molecule": "Fucosyltransferase 3 (protein, UniProt P21217 1-361, looked up) 3-galactosyl-N-acetylglucosami …: MDPLGAAKPQWPWRRCLAALLFQLLVAVCFFSYLRVSRDDATGSPRAPSGSSRQDTTPTRPTLLILLRTWPFHIPVALSRCSEMVPGTADCHITADRKVYPQADMVIVHHWDIMSNPKSRLPPSPRPQGQRWIWFNLEPPPNCQHLEALDRYFNLTMSYRSDSDIFTPYGWLEPWSGQPAHPPLNLSAKTELVAWAVSNWKPDSARVRYYQSLQAHLKVDVYGRSHKPLPKGTMMETLSRYKFYLAFENSLHPDYITEKLWRNALEAWAVPVVLGPSRSNYERFLPPDAFIHVDDFQSPKDLARYLQELDKDHARYLSYFRWRETLRPRSFSWALDFCKACWKLQQESRYQTVRSIAAWFT", "values": [{"measurement": "Median percent CHG at W24 in improver", "value": "−1.89", "unit": "%"}, {"measurement": "Median percent CHG at W24 in Non-improver", "value": 3.205, "unit": "%"}]}
{"molecule": "Lymphotoxin b R (protein, UniProt P36941 31-435, looked up) Tumor necrosis factor …: QAVPPYASENQTCRDQEKEYYEPQHRICCSRCPPGTYVSAKCSRIRDTVCATCAENSYNEHWNYLTICQLCRPCDPVMGLEEIAPCTSKRKTQCRCQPGMFCAAWALECTHCELLSDCPPGTEAELKDEVGKGNNHCVPCKAGHFQNTSSPSARCQPHTRCENQGLVEAAPGTAQSDTTCKNPLEPLPPEMSGTMLMLAVLLPLAFFLLLATVFSCIWKSHPSLCRKLGSLLKRRPQGEGPNPVAGSWEPPKAHPYFPDLVQPLLPISGDVSPVSTGLPAAPVLEAGVPQQQSPLDLTREPQLEPGEQSQVAHGTNGIHVTGGSMTITGNIYIYNGPVLGGPPGPGDLPATPEPPYPIPEEGDPGPPGLSTPHQEDGKAWHLAETEHCGATPSNRGPRNQFITHD", "values": [{"measurement": "Median percent CHG at W24 in improver", "value": 3.35, "unit": "%"}, {"measurement": "Median percent CHG at W24 in Non-improver", "value": "−0.575", "unit": "%"}]}
{"molecule": "Eotaxin-2 (protein, UniProt O00175 27-119, looked up) C-C motif chemokine 24: VVIPSPCCMFFVSKRIPENRVVSYQLSSRSTCLKAGVIFTTKKGQQFCGDPKQEWVQRYMKNLDAKQKKASPRARAVAVKGPVQRYPGNQTTC", "values": [{"measurement": "Median percent CHG at W24 in improver", "value": 4.07, "unit": "%"}, {"measurement": "Median percent CHG at W24 in Non-improver", "value": "−0.04", "unit": "%"}]}
{"molecule": "Heparin cofactor II (protein, UniProt P05546 20-499, looked up) Heparin cofactor 2: GSKGPLDQLEKGGETAQSADPQWEQLNNKNLSMPLLPADFHKENTVTNDWIPEGEEDDDYLDLEKIFSEDDDYIDIVDSLSVSPTDSDVSAGNILQLFHGKSRIQRLNILNAKFAFNLYRVLKDQVNTFDNIFIAPVGISTAMGMISLGLKGETHEQVHSILHFKDFVNASSKYEITTIHNLFRKLTHRLFRRNFGYTLRSVNDLYIQKQFPILLDFKTKVREYYFAEAQIADFSDPAFISKTNNHIMKLTKGLIKDALENIDPATQMMILNCIYFKGSWVNKFPVEMTHNHNFRLNEREVVKVSMMQTKGNFLAANDQELDCDILQLEYVGGISMLIVVPHKMSGMKTLEAQLTPRVVERWQKSMTNRTREVLLPKFKLEKNYNLVESLKLMGIRMLFDKNGNMAGISDQRIAIDLFKHQGTITVNEEGTQATTVTTVGFMPLSTQVRFTVDRPFLFLIYEHRTSCLLFMGRVANPSRS", "values": [{"measurement": "Median percent CHG at W24 in improver", "value": 3.88, "unit": "%"}, {"measurement": "Median percent CHG at W24 in Non-improver", "value": "−1.345", "unit": "%"}]}
{"molecule": "Topoisomerase I (protein, UniProt P11387 2-765, looked up) DNA topoisomerase 1: SGDHLHNDSQIEADFRLNDSHKHKDKHKDREHRHKEHKKEKDREKSKHSNSEHKDSEKKHKEKEKTKHKDGSSEKHKDKHKDRDKEKRKEEKVRASGDAKIKKEKENGFSSPPQIKDEPEDDGYFVPPKEDIKPLKRPRDEDDADYKPKKIKTEDTKKEKKRKLEEEEDGKLKKPKNKDKDKKVPEPDNKKKKPKKEEEQKWKWWEEERYPEGIKWKFLEHKGPVFAPPYEPLPENVKFYYDGKVMKLSPKAEEVATFFAKMLDHEYTTKEIFRKNFFKDWRKEMTNEEKNIITNLSKCDFTQMSQYFKAQTEARKQMSKEEKLKIKEENEKLLKEYGFCIMDNHKERIANFKIEPPGLFRGRGNHPKMGMLKRRIMPEDIIINCSKDAKVPSPPPGHKWKEVRHDNKVTWLVSWTENIQGSIKYIMLNPSSRIKGEKDWQKYETARRLKKCVDKIRNQYREDWKSKEMKVRQRAVALYFIDKLALRAGNEKEEGETADTVGCCSLRVEHINLHPELDGQEYVVEFDFLGKDSIRYYNKVPVEKRVFKNLQLFMENKQPEDDLFDRLNTGILNKHLQDLMEGLTAKVFRTYNASITLQQQLKELTAPDENIPAKILSYNRANRAVAILCNHQRAPPKTFEKSMMNLQTKIDAKKEQLADARRDLKSAKADAKVMKDAKTKKVVESKKKAVQRLEEQLMKLEVQATDREENKQIALGTSKLNYLDPRITVAWCKKWGVPIEKIYNKTQREKFAWAIDMADEDYEF", "values": [{"measurement": "Median percent CHG at W24 in improver", "value": "−13.48", "unit": "%"}, {"measurement": "Median percent CHG at W24 in Non-improver", "value": 6.47, "unit": "%"}]}
{"molecule": "XEDAR (protein, UniProt Q9HAV5 1-297, looked up) Tumor necrosis factor …: MDCQENEYWDQWGRCVTCQRCGPGQELSKDCGYGEGGDAYCTACPPRRYKSSWGHHRCQSCITCAVINRVQKVNCTATSNAVCGDCLPRFYRKTRIGGLQDQECIPCTKQTPTSEVQCAFQLSLVEADTPTVPPQEATLVALVSSLLVVFTLAFLGLFFLYCKQFFNRHCQRGGLLQFEADKTAKEESLFPVPPSKETSAESQVSENIFQTQPLNPILEDDCSSTSGFPTQESFTMASCTSESHSHWVHSPIECTELDLQKFSSSASYTGAETLGGNTVESTGDRLELNVPFEVPSP", "values": [{"measurement": "Median percent CHG at W24 in improver", "value": 1.66, "unit": "%"}, {"measurement": "Median percent CHG at W24 in Non-improver", "value": "−0.875", "unit": "%"}]}
{"molecule": "Myeloperoxidase (protein, UniProt P05164 165-745, looked up) Myeloperoxidase: VTCPEQDKYRTITGMCNNRRSPTLGASNRAFVRWLPAEYEDGFSLPYGWTPGVKRNGFPVALARAVSNEIVRFPTDQLTPDQERSLMFMQWGQLLDHDLDFTPEPAARASFVTGVNCETSCVQQPPCFPLKIPPNDPRIKNQADCIPFFRSCPACPGSNITIRNQINALTSFVDASMVYGSEEPLARNLRNMSNQLGLLAVNQRFQDNGRALLPFDNLHDDPCLLTNRSARIPCFLAGDTRSSEMPELTSMHTLLLREHNRLATELKSLNPRWDGERLYQEARKIVGAMVQIITYRDYLPLVLGPTAMRKYLPTYRSYNDSVDPRIANVFTNAFRYGHTLIQPFMFRLDNRYQPMEPNPRVPLSRVFFASWRVVLEGGIDPILRGLMATPAKLNRQNQIAVDEIRERLFEQVMRIGLDLPALNMQRSRDHGLPGYNAWRRFCGLPQPETVGQLGTVLRNLKLARKLMEQYGTPNNIDIWMGGVSEPLKRKGRVGPLLACIIGTQFRKLRDGDRFWWENEGVFSMQQRQALAQISLPRIICDNTGITTVSKNNIFMSNSYPRDFVNCSTLPALNLASWREAS", "values": [{"measurement": "Median percent CHG at W24 in improver", "value": "−17.96", "unit": "%"}, {"measurement": "Median percent CHG at W24 in Non-improver", "value": "−9.61", "unit": "%"}]}
